Measurements reported in PubChem BioAssay AID1224828 (NIAID, 2016)
Here is an unselected part of about 17,000 reagents tested. In the full data, 762 (4.5%) got an active call. 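Active calls include both raised and lowered p65 entry, mostly lowered; wells with fewer than 50 cells lack a z-score.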 Raw values vary from plate to plate and are shown uncorrected.

Assay: 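Find genes required for NF-kappaB p65 moving into the nucleus after LPS in mouse macrophages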 (primary screen)
Cell system: mouse RAW264.7 G9 macrophage reporter cells (GFP-p65, Tnf promoter-mCherry)
Reagents: siRNA pool against mouse genes, 100 nM
Timing: 2 days siRNA transfection, then 40 min LPS before fixation
Treatment: LPS (Salmonella minnesota R595) at 10 ng/ml
Measurement: 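Microscopy ratio of nuclear to perinuclear-ring GFP-p65 signal, scaled to the plate median; gene score is the average of two replicate robust z-scores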
Scale: p65 translocation robust z-score: higher = more nuclear NF-kappaB p65 after LPS than the plate median; nuclear/cytoplasmic p65 ratio: higher = more nuclear NF-kappaB p65
Active means: 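Called active when z exceeds 3.3 or falls under -1.56 (median of Tlr4 controls), giving activity score of at least 50; no calls for control wells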
Meaning of the calls: active = hit (p65 shift raised or lowered); inactive = no clear change

no.	gene	p65 translocation robust z-score	nuclear/cytoplasmic p65 ratio, rep 1	nuclear/cytoplasmic p65 ratio, rep 2	low cell count flag	Outcome
1	Steap3 (STEAP family member 3)	-0.01	1.6	1.62	enough cells to score	inactive
2	Cdc45 (cell division cycle 45)	-1.14	1.42	1.23	enough cells to score	inactive
3	Vps25 (vacuolar protein sorting 25)	-0.25	1.42	1.88	enough cells to score	inactive
4	Cx3cl1 (C-X3-C motif chemokine ligand 1)	-0.26	1.48	1.31	enough cells to score	inactive
5	Slc2a12		0	1.49	fewer than 50 cells per well; well left out of scoring	inactive
6	Lingo2 (leucine rich repeat and Ig domain containing 2)	-0.07	1.48	1.62	enough cells to score	inactive
7	Abhd8 (abhydrolase domain containing 8)	-0.96	1.49	1.45	enough cells to score	inactive
8	C1galt1	1.16	1.62	1.65	enough cells to score	inactive
9	Aff1 (AF4/FMR2 family, member 1)	-0.16	1.67	1.64	enough cells to score	inactive
10	Tonsl (tonsoku-like, DNA repair protein)	-0.48	1.56	1.53	enough cells to score	inactive
11	Fmo9 (flavin containing monooxygenase 9)	-0.29	1.26	1.22	enough cells to score	inactive
12	Hsd17b2 (hydroxysteroid (17-beta) dehydrogenase 2)	-0.37	1.44	1.28	enough cells to score	inactive
13	Sult2b1 (sulfotransferase family, cytosolic, 2B, member 1)	1.36	1.58	1.4	enough cells to score	inactive
14	Nlrp2 (NLR family, pyrin domain containing 2)	-0.48	1.41	1.3	enough cells to score	inactive
15	Hbb-bh1 (hemoglobin Z, beta-like embryonic chain)	0.05	1.62	1.58	enough cells to score	inactive
16	Ubxn11 (UBX domain protein 11)	-0.42	1.45	1.55	enough cells to score	inactive
17	Opn1mw	-1.2	1.34	1.58	enough cells to score	inactive
18	Flcn (folliculin)	-0.17	1.62	1.55	enough cells to score	inactive
19	Snrpc (U1 small nuclear ribonucleoprotein C)	0.77	1.25	1.32	enough cells to score	inactive
20	Gpld1 (glycosylphosphatidylinositol specific phospholipase D1)	-1.1	1.59	1.28	enough cells to score	inactive
21	Pabir3 (PABIR family member 3)	-1.17	1.12	1.12	enough cells to score	inactive
22	Cfap300 (cilia and flagella associated protein 300)	1.82	1.97	1.84	enough cells to score	inactive
23	Or5i1 (olfactory receptor family 5 subfamily I member 1)	1.01	1.58	1.81	enough cells to score	inactive
24	Htr3a (5-hydroxytryptamine (serotonin) receptor 3A)		1.39	1.58	fewer than 50 cells per well; well left out of scoring	inactive
25	Dhx57 (DExH-box helicase 57)	0.12	1.5	1.64	enough cells to score	inactive
26	Lrrc18 (leucine rich repeat containing 18)		1.28	1.42	fewer than 50 cells per well; well left out of scoring	inactive
27	Ralgps2 (Ral GEF with PH domain and SH3 binding motif 2)	1.19	1.77	1.81	enough cells to score	inactive
28	Numa1 (nuclear mitotic apparatus protein 1)	0.48	1.66	1.71	enough cells to score	inactive
29	Zdhhc24 (zinc finger, DHHC domain containing 24)		1.66	1.29	fewer than 50 cells per well; well left out of scoring	inactive
30	Kyat3 (kynurenine aminotransferase 3)	-1.38	1.36	1.62	enough cells to score	inactive
31	Arid4a (AT-rich interaction domain 4A)	0.34	1.66	1.68	enough cells to score	inactive
32	Pef1 (penta-EF hand domain containing 1)	-0.86	1.3	1.33	enough cells to score	inactive
33	Mrpl3 (mitochondrial ribosomal protein L3)	0.09	1.82	1.59	enough cells to score	inactive
34	Fbxw19 (F-box and WD-40 domain protein 19)	-0.93	1.4	1.19	enough cells to score	inactive
35	AF085738 (retired record)	-1.78	1.38	1.37	enough cells to score	active
36	Or52z1 (olfactory receptor family 52 subfamily Z member 1)	0.7	1.53	1.35	enough cells to score	inactive
37	Cnppd1 (cyclin Pas1/PHO80 domain containing 1)	1.79	1.53	1.57	enough cells to score	inactive
38	Dnajc10 (DnaJ heat shock protein family (Hsp40) member C10)	-0.1	1.44	1.36	enough cells to score	inactive
39	Tnfsf18 (tumor necrosis factor (ligand) superfamily, member 18)	-0.55	1.48	1.4	enough cells to score	inactive
40	Myo9b (myosin IXb)	0.51	1.56	1.36	enough cells to score	inactive

Just “low cell count flag”, for 5 of the entries above:
Or5i1 (olfactory receptor family 5 subfamily I member 1)	enough cells to score
Htr3a (5-hydroxytryptamine (serotonin) receptor 3A)	fewer than 50 cells per well; well left out of scoring
Dhx57 (DExH-box helicase 57)	enough cells to score
Lrrc18 (leucine rich repeat containing 18)	fewer than 50 cells per well; well left out of scoring
Ralgps2 (Ral GEF with PH domain and SH3 binding motif 2)	enough cells to score
